PubChem BioAssay AID743454 | Peter MacCallum Cancer Centre, 2014
This is one part, drawn at random, of about 18,000 deposited reagents. Of all reagents, 450 (2.5%) were called active. 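Single biological run; no consistent viability z cut-off exists, so the class columns, not z-scores, define the calls.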

- Test: 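Genes whose loss kills vorinostat-resistant colon cancer cells under vorinostat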 (primary screen)
- Cell system: human HCT116-VR colon cancer cells, selected for vorinostat resistance
- Reagent: siRNA pool against human genes, 40 nM siRNA pool
- Duration: vorinostat for 24 h, read-out about 72 h after transfection
- Treatment: vorinostat at 2.5 µM final
- Measured: 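Two measures, CellTiter-Fluor viability and luminescent caspase 3/7 activity, each as fold change against same-plate mock wells, mean of duplicates, then screen-wide robust z-score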
- Reading the numbers: viability robust z-score: higher = more viable cells than screen typical; caspase robust z-score: higher = more caspase 3/7 activity than screen typical
- Call rule: 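a knock-down is a hit when classed RV1 or RV2 for lowered viability, or CA1 or CA2 for caspase activation; those lethal without drug were dropped; hits were retested singly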

gene symbol | viability hit class | caspase hit class | viability robust z-score | caspase robust z-score | Outcome
GRIK1 | no change | no change | 0.53 | 0.51 | inactive
DOLPP1 | no change | no change | -0.42 | 2.25 | inactive
MSMO1 | no change | no change | -0.13 | -0.74 | inactive
MON2 | no change | no change | 0.77 | 0.66 | inactive
HENMT1 | no change | no change | -0.39 | -0.87 | inactive
PEAR1 | no change | no change | -0.3 | 0.9 | inactive
EMC6 | no change | no change | -0.66 | -0.85 | inactive
NAXD | no change | no change | -0.06 | -0.4 | inactive
DMRTC1 | no change | no change | -1.04 | 3.42 | inactive
MAGEC1 | no change | no change | -1.04 | 1.3 | inactive
AHSA1 | no change | no change | -1.73 | 0.55 | inactive
NAALAD2 | no change | no change | 0.3 | -0.32 | inactive
OR4K13 | no change | no change | 1.34 | 0.15 | inactive
CEMP1 | no change | no change | 0.5 | 1.45 | inactive
AQP6 | no change | no change | 0.1 | -0.19 | inactive
GRIN3B | no change | no change | -0.15 | 0.24 | inactive
TBC1D20 | no change | CA2 (caspase activation) | -1.15 | 5.98 | active
RARG | no change | no change | -1.46 | 0.18 | inactive
TCN2 | no change | no change | 0.03 | -1.19 | inactive
MBTD1 | no change | no change | 1.27 | 0.02 | inactive
TRIM39 | no change | no change | -0.02 | 0.4 | inactive
PAX1 | no change | no change | -0.06 | -0.04 | inactive
SMUG1 | no change | no change | -0.86 | -0.35 | inactive
BZW2 | no change | no change | 1.3 | -1.39 | inactive
ANKRD13A | no change | no change | -0.83 | -0.12 | inactive

5 entries from above, arranged by “caspase robust z-score”, lowest first.
gene symbol | viability hit class | caspase hit class | viability robust z-score | caspase robust z-score | Outcome
AQP6 | no change | no change | 0.1 | -0.19 | inactive
RARG | no change | no change | -1.46 | 0.18 | inactive
GRIN3B | no change | no change | -0.15 | 0.24 | inactive
CEMP1 | no change | no change | 0.5 | 1.45 | inactive
TBC1D20 | no change | CA2 (caspase activation) | -1.15 | 5.98 | active

The list goes on:
gene symbol | viability hit class | caspase hit class | viability robust z-score | caspase robust z-score | Outcome
PLEK2 | no change | no change | -0.8 | -0.01 | inactive
FKBP15 | no change | no change | -0.16 | 0.86 | inactive
GAS7 | no change | no change | 0.08 | -0.54 | inactive
PRP4K | no change | no change | -2.04 | 2.17 | inactive
ZFAND1 | no change | no change | 2.21 | -0.82 | inactive
CIMIP2A | no change | no change | 0.52 | -0.97 | inactive
FOSL2 | no change | no change | -0.5 | 2.63 | inactive
LRCH3 | no change | no change | -0.88 | 0.12 | inactive
H2AZ2 | no change | no change | -0.23 | -0.14 | inactive
LILRA5 | no change | no change | 0.76 | -0.75 | inactive
RGP1 | no change | no change | 0.02 | -1.31 | inactive
TCHP | no change | no change | 0.59 | -0.5 | inactive
ZNF740 | no change | no change | 1.62 | 1.05 | inactive
PCSK1N | no change | no change | 0.72 | -0.2 | inactive
MAP2K5 | no change | no change | 1.12 | -0.98 | inactive
OXR1 | no change | no change | 1.08 | -0.32 | inactive
CCSAP | no change | no change | -0.09 | -0.48 | inactive
MAGEA5P | no change | no change | -1.4 | -0.5 | inactive
DCLRE1B | no change | no change | -0.03 | -0.65 | inactive
SEL1L | no change | no change | -0.23 | 3.58 | inactive
FABP4 | no change | no change | -1.52 | -1.2 | inactive
IRX5 | no change | no change | -0.09 | 2.06 | inactive
NPR1 | no change | no change | 0.52 | -0.25 | inactive
KLF6 | no change | no change | -0.34 | 0.18 | inactive
MAGED1 | no change | no change | 0.09 | 0.68 | inactive
MAGEH1 | no change | no change | -1.66 | 4.67 | inactive
MARCHF7 | no change | no change | -0.12 | 1.7 | inactive
C1orf141 | no change | no change | 1.21 | -0.63 | inactive
FAM78B | no change | no change | -0.22 | 1.72 | inactive
MEIS3 | no change | no change | 0.64 | 2.58 | inactive
IQGAP2 | no change | no change | 0.18 | -0.51 | inactive
PIM1 | no change | no change | 1.23 | -0.32 | inactive
